Measurements from paper doi:10.1101/2023.06.24.546380.
These are yes or no findings as the source states them, for the method shown. Some results given as binding are weak or reduced against the parent protein; the word gives no strength.

T1: Zonula occludens scaffold protein ZO1, Q07157
T1 chain: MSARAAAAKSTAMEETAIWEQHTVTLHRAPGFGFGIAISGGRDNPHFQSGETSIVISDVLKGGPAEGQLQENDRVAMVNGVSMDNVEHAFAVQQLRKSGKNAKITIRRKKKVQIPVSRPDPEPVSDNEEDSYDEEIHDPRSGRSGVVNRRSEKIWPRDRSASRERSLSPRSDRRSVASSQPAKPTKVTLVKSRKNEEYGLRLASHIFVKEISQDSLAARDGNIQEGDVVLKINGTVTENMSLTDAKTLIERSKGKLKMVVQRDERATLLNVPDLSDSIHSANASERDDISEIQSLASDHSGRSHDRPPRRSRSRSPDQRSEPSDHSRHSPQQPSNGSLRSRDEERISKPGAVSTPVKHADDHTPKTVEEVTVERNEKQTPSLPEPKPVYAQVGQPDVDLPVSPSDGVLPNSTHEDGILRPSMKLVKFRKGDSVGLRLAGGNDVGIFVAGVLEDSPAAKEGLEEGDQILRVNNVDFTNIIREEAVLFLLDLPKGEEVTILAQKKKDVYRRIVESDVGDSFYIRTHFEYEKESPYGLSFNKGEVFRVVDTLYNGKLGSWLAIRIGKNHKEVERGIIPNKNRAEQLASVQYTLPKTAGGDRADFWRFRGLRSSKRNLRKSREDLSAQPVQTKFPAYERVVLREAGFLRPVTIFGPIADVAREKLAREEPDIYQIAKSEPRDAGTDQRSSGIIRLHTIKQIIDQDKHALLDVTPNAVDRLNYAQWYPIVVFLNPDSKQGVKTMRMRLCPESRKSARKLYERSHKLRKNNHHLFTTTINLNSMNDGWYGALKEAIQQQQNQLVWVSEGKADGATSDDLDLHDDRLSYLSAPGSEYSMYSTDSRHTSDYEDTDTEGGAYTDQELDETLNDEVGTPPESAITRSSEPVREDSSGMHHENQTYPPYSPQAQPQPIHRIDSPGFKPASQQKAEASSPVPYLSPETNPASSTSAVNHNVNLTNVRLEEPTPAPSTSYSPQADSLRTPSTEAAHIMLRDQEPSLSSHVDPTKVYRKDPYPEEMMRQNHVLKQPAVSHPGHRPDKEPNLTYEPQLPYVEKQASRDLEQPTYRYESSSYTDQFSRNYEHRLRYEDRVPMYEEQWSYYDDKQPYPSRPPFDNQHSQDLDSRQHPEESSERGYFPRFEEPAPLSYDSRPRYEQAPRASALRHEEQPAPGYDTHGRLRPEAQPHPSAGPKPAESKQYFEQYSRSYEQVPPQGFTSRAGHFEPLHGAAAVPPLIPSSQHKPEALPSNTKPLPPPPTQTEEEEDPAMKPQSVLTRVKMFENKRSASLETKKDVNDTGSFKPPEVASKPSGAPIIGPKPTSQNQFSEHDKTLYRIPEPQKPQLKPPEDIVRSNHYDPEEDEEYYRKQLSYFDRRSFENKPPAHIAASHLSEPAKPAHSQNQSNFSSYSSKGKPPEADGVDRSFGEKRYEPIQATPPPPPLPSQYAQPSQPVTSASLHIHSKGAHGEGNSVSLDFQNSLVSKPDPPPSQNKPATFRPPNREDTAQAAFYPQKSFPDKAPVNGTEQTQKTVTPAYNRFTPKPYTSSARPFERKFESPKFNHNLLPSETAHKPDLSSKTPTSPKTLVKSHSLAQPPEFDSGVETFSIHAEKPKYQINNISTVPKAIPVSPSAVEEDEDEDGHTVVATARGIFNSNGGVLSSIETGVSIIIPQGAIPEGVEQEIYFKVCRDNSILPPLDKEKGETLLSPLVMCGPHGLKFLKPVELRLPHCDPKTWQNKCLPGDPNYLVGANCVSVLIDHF


Key:
[1] = target: Zonula occludens scaffold protein ZO1 (UniProt Q07157)
[2] = target: T1, Zonula occludens scaffold protein ZO1, …; conditions: remark: other sources report otherwise

Row | binding [1] | binding [2] | Binder
1 | binds |  | CGN (protein, UniProt Q9P2M7 1-1203) MEQAPNMAEPRGPVDHGVQIRFITEPVSGAEMGTLRRGGRRPAKDARASTYGVAVRVQGIAGQPFVVLNSGEKGGDSFGVQIKGANDQGASGALSSDLELPENPYSQVKGFPAPSQSSTSDEEPGAYWNGKLLRSHSQASLAGPGPVDPSNRSNSMLELAPKVASPGSTIDTAPLSSVDSLINKFDSQLGGQARGRTGRRTRMLPPEQRKRSKSLDSRLPRDTFEERERQSTNHWTSSTKYDNHVGTSKQPAQSQNLSPLSGFSRSRQTQDWVLQSFEEPRRSAQDPTMLQFKSTPDLLRDQQEAAPPGSVDHMKATIYGILREGSSESETSVRRKVSLVLEKMQPLVMVSSGSTKAVAGQGELTRKVEELQRKLDEEVKKRQKLEPSQVGLERQLEEKTEECSRLQELLERRKGEAQQSNKELQNMKRLLDQGEDLRHGLETQVMELQNKLKHVQGPEPAKEVLLKDLLETRELLEEVLEGKQRVEEQLRLRERELTALKGALKEEVASRDQEVEHVRQQYQRDTEQLRRSMQDATQDHAVLEAERQKMSALVRGLQRELEETSEETGHWQSMFQKNKEDLRATKQELLQLRMEKEEMEEELGEKIEVLQRELEQARASAGDTRQVEVLKKELLRTQEELKELQAERQSQEVAGRHRDRELEKQLAVLRVEADRGRELEEQNLQLQKTLQQLRQDCEEASKAKMVAEAEATVLGQRRAAVETTLRETQEENDEFRRRILGLEQQLKETRGLVDGGEAVEARLRDKLQRLEAEKQQLEEALNASQEEEGSLAAAKRALEARLEEAQRGLARLGQEQQTLNRALEEEGKQREVLRRGKAELEEQKRLLDRTVDRLNKELEKIGEDSKQALQQLQAQLEDYKEKARREVADAQRQAKDWASEAEKTSGGLSRLQDEIQRLRQALQASQAERDTARLDKELLAQRLQGLEQEAENKKRSQDDRARQLKGLEEKVSRLETELDEEKNTVELLTDRVNRGRDQVDQLRTELMQERSARQDLECDKISLERQNKDLKTRLASSEGFQKPSASLSQLESQNQLLQERLQAEEREKTVLQSTNRKLERKVKELSIQIEDERQHVNDQKDQLSLRVKALKRQVDEAEEEIERLDGLRKKAQREVEEQHEVNEQLQARIKSLEKDSWRKASRSAAESALKNEGLSSDEEFDSVYDPSSIASLLTESNLQTSSC
2 |  | binds | PAR3, Q8TEW0 1-1356 (protein) MKVTVCFGRTRVVVPCGDGHMKVFSLIQQAVTRYRKAIAKDPNYWIQVHRLEHGDGGILDLDDILCDVADDKDRLVAVFDEQDPHHGGDGTSASSTGTQSPEIFGSELGTNNVSAFQPYQATSEIEVTPSVLRANMPLHVRRSSDPALIGLSTSVSDSNFSSEEPSRKNPTRWSTTAGFLKQNTAGSPKTCDRKKDENYRSLPRDTSNWSNQFQRDNARSSLSASHPMVGKWLEKQEQDEDGTEEDNSRVEPVGHADTGLEHIPNFSLDDMVKLVEVPNDGGPLGIHVVPFSARGGRTLGLLVKRLEKGGKAEHENLFRENDCIVRINDGDLRNRRFEQAQHMFRQAMRTPIIWFHVVPAANKEQYEQLSQSEKNNYYSSRFSPDSQYIDNRSVNSAGLHTVQRAPRLNHPPEQIDSHSRLPHSAHPSGKPPSAPASAPQNVFSTTVSSGYNTKKIGKRLNIQLKKGTEGLGFSITSRDVTIGGSAPIYVKNILPRGAAIQDGRLKAGDRLIEVNGVDLVGKSQEEVVSLLRSTKMEGTVSLLVFRQEDAFHPRELNAEPSQMQIPKETKAEDEDIVLTPDGTREFLTFEVPLNDSGSAGLGVSVKGNRSKENHADLGIFVKSIINGGAASKDGRLRVNDQLIAVNGESLLGKTNQDAMETLRRSMSTEGNKRGMIQLIVARRISKCNELKSPGSPPGPELPIETALDDRERRISHSLYSGIEGLDESPSRNAALSRIMGESGKYQLSPTVNMPQDDTVIIEDDRLPVLPPHLSDQSSSSSHDDVGFVTADAGTWAKAAISDSADCSLSPDVDPVLAFQREGFGRQSMSEKRTKQFSDASQLDFVKTRKSKSMDLGIADETKLNTVDDQKAGSPSRDVGPSLGLKKSSSLESLQTAVAEVTLNGDIPFHRPRPRIIRGRGCNESFRAAIDKSYDKPAVDDDDEGMETLEEDTEESSRSGRESVSTASDQPSHSLERQMNGNQEKGDKTDRKKDKTGKEKKKDRDKEKDKMKAKKGMLKGLGDMFRFGKHRKDDKIEKTGKIKIQESFTSEEERIRMKQEQERIQAKTREFRERQARERDYAEIQDFHRTFGCDDELMYGGVSSYEGSMALNARPQSPREGHMMDALYAQVKKPRNSKPSPVDSNRSTPSNHDRIQRLRQEFQQAKQDEDVEDRRRTYSFEQPWPNARPATQSGRHSVSVEVQMQRQRQEERESSQQAQRQYSSLPRQSRKNASSVSQDSWEQNYSPGEGFQSAKENPRYSSYQGSRNGYLGGHGFNARVMLETQELLRQEQRRKEQQMKKQPPSEGPSNYDSYKKVQDPSYAPPKGPFRQDVPPSPSQVARLNRLQTPEKGRPFYS
3 | binds |  | ZO2 (protein, UniProt Q9UDY2 1-1190) MPVRGDRGFPPRRELSGWLRAPGMEELIWEQYTVTLQKDSKRGFGIAVSGGRDNPHFENGETSIVISDVLPGGPADGLLQENDRVVMVNGTPMEDVLHSFAVQQLRKSGKVAAIVVKRPRKVQVAALQASPPLDQDDRAFEVMDEFDGRSFRSGYSERSRLNSHGGRSRSWEDSPERGRPHERARSRERDLSRDRSRGRSLERGLDQDHARTRDRSRGRSLERGLDHDFGPSRDRDRDRSRGRSIDQDYERAYHRAYDPDYERAYSPEYRRGARHDARSRGPRSRSREHPHSRSPSPEPRGRPGPIGVLLMKSRANEEYGLRLGSQIFVKEMTRTGLATKDGNLHEGDIILKINGTVTENMSLTDARKLIEKSRGKLQLVVLRDSQQTLINIPSLNDSDSEIEDISEIESNRSFSPEERRHQYSDYDYHSSSEKLKERPSSREDTPSRLSRMGATPTPFKSTGDIAGTVVPETNKEPRYQEDPPAPQPKAAPRTFLRPSPEDEAIYGPNTKMVRFKKGDSVGLRLAGGNDVGIFVAGIQEGTSAEQEGLQEGDQILKVNTQDFRGLVREDAVLYLLEIPKGEMVTILAQSRADVYRDILACGRGDSFFIRSHFECEKETPQSLAFTRGEVFRVVDTLYDGKLGNWLAVRIGNELEKGLIPNKSRAEQMASVQNAQRDNAGDRADFWRMRGQRSGVKKNLRKSREDLTAVVSVSTKFPAYERVLLREAGFKRPVVLFGPIADIAMEKLANELPDWFQTAKTEPKDAGSEKSTGVVRLNTVRQIIEQDKHALLDVTPKAVDLLNYTQWFPIVIFFNPDSRQGVKTMRQRLNPTSNKSSRKLFDQANKLKKTCAHLFTATINLNSANDSWFGSLKDTIQHQQGEAVWVSEGKMEGMDDDPEDRMSYLTAMGADYLSCDSRLISDFEDTDGEGGAYTDNELDEPAEEPLVSSITRSSEPVQHEESIRKPSPEPRAQMRRAASSDQLRDNSPPPAFKPEPPKAKTQNKEESYDFSKSYEYKSNPSAVAGNETPGASTKGYPPPVAAKPTFGRSILKPSTPIPPQEGEEVGESSEEQDNAPKSVLGKVKIFEKMDHKARLQRMQELQEAQNARIEIAQKHPDIYAVPIKTHKPDPGTPQHTSSRPPEPQKAPSRPYQDTRGSYGSDAEEEEYRQQLSEHSKRGYYGQSARYRDTEL
